Positions count from the first letter of the chain named. The exact form of at least one protein or probe is not confirmed. Protein sequences can lack the tags named with them.
Assays:
Experiment in all cases: EMSA
[1] = molecular target: T1, OrfAB-GFP GMF36 R37Q/S44N R52Q,S59N (UniProt P51026); details: 20 mM Tris-Cl pH 8.0, 1 mM EDTA, 5 ug/mL calf thymus DNA, 10 nM DNA, 0.11-0.13 uM protein, 30 min at 20 C; gels at 4 C; recombinant protein; protein details: 6xHis, C-terminal GFPuv; label: 5'-32P upper strand
T1 sequence (looked up, limits assumed): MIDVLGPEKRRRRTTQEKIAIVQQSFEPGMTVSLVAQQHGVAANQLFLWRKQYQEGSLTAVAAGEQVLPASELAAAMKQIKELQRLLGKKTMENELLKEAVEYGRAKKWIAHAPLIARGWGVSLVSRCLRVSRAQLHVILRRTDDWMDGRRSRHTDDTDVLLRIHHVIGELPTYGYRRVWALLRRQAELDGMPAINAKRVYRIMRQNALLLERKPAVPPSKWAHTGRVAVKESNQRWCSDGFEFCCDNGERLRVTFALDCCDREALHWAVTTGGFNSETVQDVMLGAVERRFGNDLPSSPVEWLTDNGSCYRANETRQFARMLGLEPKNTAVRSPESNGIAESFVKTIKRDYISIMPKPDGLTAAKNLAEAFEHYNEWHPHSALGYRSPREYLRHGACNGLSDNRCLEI

[2] = molecular target: T2, OrfAB-GFP GMF28 S44N S59N (UniProt P51026); details: 20 mM Tris-Cl pH 8.0, 1 mM EDTA, 5 ug/mL calf thymus DNA, 10 nM DNA, 0.11-0.13 uM protein, 30 min at 20 C; gels at 4 C; recombinant protein; protein details: 6xHis, C-terminal GFPuv; label: 5'-32P upper strand; counted as no binding
T2 sequence (looked up, limits assumed): T1 sequence (looked up, limits assumed) with Q37R

[3] = molecular target: T3, OrfAB-GFP GMF106 L83V L98V (UniProt P51026); details: 20 mM Tris-Cl pH 8.0, 1 mM EDTA, 5 ug/mL calf thymus DNA, 10 nM DNA, 0.11-0.13 uM protein, 30 min at 20 C; gels at 4 C; recombinant protein; protein details: 6xHis, C-terminal GFPuv; label: 5'-32P upper strand; counted as no binding
T3 sequence (looked up, limits assumed): T1 sequence (looked up, limits assumed) with Q37R, N44S, L68V, L83V

[4] = molecular target: T4, OrfAB-GFP GMF7 N94D N109D (UniProt P51026); details: panel (50- or 87-mer) not stated in material; 20 mM Tris-Cl pH 8.0, 1 mM EDTA, 5 ug/mL calf thymus DNA, 10 nM DNA, 0.11-0.13 uM protein, 30 min at 20 C; gels at 4 C; recombinant protein; protein details: 6xHis, C-terminal GFPuv; label: 5'-32P upper strand
T4 sequence (looked up, limits assumed): T1 sequence (looked up, limits assumed) with Q37R, N44S, N94D

[5] = molecular target: T5, OrfAB-GFP GMF40 V35L V50L (UniProt P51026); details: 20 mM Tris-Cl pH 8.0, 1 mM EDTA, 5 ug/mL calf thymus DNA, 10 nM DNA, 0.11-0.13 uM protein, 30 min at 20 C; gels at 4 C; recombinant protein; protein details: 6xHis, C-terminal GFPuv; label: 5'-32P upper strand
T5 sequence (looked up, limits assumed): T1 sequence (looked up, limits assumed) with V35L, Q37R, N44S

[6] = molecular target: T6, OrfAB-GFP GMF34 R13H R28H (UniProt P51026); details: 20 mM Tris-Cl pH 8.0, 1 mM EDTA, 5 ug/mL calf thymus DNA, 10 nM DNA, 0.11-0.13 uM protein, 30 min at 20 C; gels at 4 C; recombinant protein; protein details: 6xHis, C-terminal GFPuv; label: 5'-32P upper strand; counted as no binding
T6 sequence (looked up, limits assumed): T1 sequence (looked up, limits assumed) with R13H, Q37R, N44S

Work on “GGATCCTTAAGTGATAACAGATGTCTGGAAATATAGGGGCAAATCCAGCG (double strand) [IRR 50-mer]” yielded a binding signal (binding score (0-5)) [1] of 2, a binding signal (binding score (0-5)) [2] of 0 and a binding signal (binding score (0-5)) [3] of 0. The binding signal (binding score (0-5)) [4] was 3, the binding signal (binding score (0-5)) [5] was 4 and the binding signal (binding score (0-5)) [6] was 0.

— article PMC3219604
